Data taken from PubChem BioAssay AID1347072 (National Center for Advancing Translational Sciences (NCATS), 2019).
Among all 44,000 compounds or so, fewer than 10 were called active. Inconclusive means that the source gave no clear call. Such entries were picked first, then a sample of the others. Calls come from the whole dose curve; as a rule, active = well fitted curve in the direction sought with a large enough effect; inconclusive = small, poorly fitted or top-dose-only effect, or another doubt; inactive = no such curve, though single readings can be large or run the other way. Potencies beside an inconclusive call are fits to weak or partial responses and may not hold up.

Chains of the proteins cited; added tags and fusions are not shown. Lines headed by an entry give the natural chain unless they say otherwise; changes in a name come on top.
UniProt P51570: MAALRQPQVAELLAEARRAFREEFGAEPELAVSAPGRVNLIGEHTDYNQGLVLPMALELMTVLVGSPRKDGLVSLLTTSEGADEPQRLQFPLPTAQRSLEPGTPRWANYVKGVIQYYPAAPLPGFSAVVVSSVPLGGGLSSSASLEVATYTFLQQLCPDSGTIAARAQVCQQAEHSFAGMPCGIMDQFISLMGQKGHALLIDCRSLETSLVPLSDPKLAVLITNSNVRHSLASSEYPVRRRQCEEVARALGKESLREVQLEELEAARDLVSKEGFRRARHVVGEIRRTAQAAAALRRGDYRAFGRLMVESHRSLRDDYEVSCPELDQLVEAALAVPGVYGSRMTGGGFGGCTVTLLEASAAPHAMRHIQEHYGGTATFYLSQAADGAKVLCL

Molecular target: Galactokinase (Homo sapiens) (UniProt P51570)
Assay: qHTS Assay for Inhibitors of Human Galactokinase (GALK): NCGC Sytravon Library Screen
Details: recombinant GALK, Kinase-Glo ATP luminescence, 1 h; series mostly up to 57.5 µM
Outline: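 Luminescent ATP-depletion readout (Kinase-Glo Plus) after 1 h room-temperature incubation of human GALK (5 nM) with galactose 100 µM and ATP 35 µM, pH 8.0 HEPES/Mg2+ buffer; compounds tested in qHTS format.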

Potency, inactive:
CCC(C(=O)Nc1c(C)cc(C)cc1C)n1c(=O)c(-c2ccccc2NC(C)=O)nc2ccccc21 (stereo not drawn)
CCOC(=O)Cn1c(=O)n(-c2ccccc2OC)c2nc(-c3cccc(F)c3)nc(C(N)=O)c21
CCOc1ccccc1C(=O)Nc1ccc2nc3c(c(Nc4ccc(OC)c(OC)c4)c2c1)CCCC3
CCOC(=O)c1cccc(NC(=O)CC(c2cc(OC)c(OC)c(OC)c2)N2Cc3ccccc3C2=O)c1 (stereo not drawn)
Cc1cccc(N(CC(=O)NCCSc2ccc(Cl)cc2)S(C)(=O)=O)c1C
Cc1ccc(/C=C/c2nc3ccccc3n2S(=O)(=O)c2cccc(Cl)c2)cc1
COc1cc(-c2nc3ccc(Cl)cn3c2Nc2ccc3c(c2)OCCO3)ccc1O
COc1cc(C(=O)Nc2ccc3nc4n(c(=O)c3c2)CCCCC4)cc(OC)c1OC
CCOC(=O)C1CCN(c2cc3c(cc2NC(=O)c2ccc(Cl)cc2)n(C)c(=O)n3C)CC1
COc1ccc(C)cc1NC(=O)c1noc2c1CSc1ccccc1-2
COc1cc(OC)cc(-c2cc3nc(C)c(CCC(=O)NCCc4cccc(C)c4)c(C)n3n2)c1
CC1CCCN(CCCNC(=O)c2cc(Sc3ccc(F)cc3)nc3ccccc23)C1 (stereo not drawn)
O=C(NCc1ccccc1)C1CCN(S(=O)(=O)Cc2ccccc2)CC1
COc1ccc(-c2nc3scc(CCNS(=O)(=O)c4cc(F)ccc4OC)n3n2)cc1OC

Potency, inconclusive:
CNS(=O)(=O)c1cn(CC(=O)N2CCN(c3ccc(Cl)cc3)CC2)cc1S(=O)(=O)NC 1.12 µM [inhibitor, full curve, poor fit]
Cc1cccc(C)c1NC(=O)c1oc2ccc3c(c2c1C)C(=O)CC(C)(C)O3 1.78 µM [inhibitor, full curve, poor fit]
O=C(Nc1ccccc1)c1ccc2c(O)c(S(=O)(=O)c3ccc(Cl)cc3)c(=O)[nH]c2c1 28.2 µM [inhibitor, partial curve, poor fit]
CC(=O)N1c2ccc(S(=O)(=O)N(C)CC(=O)N(Cc3ccccc3)C(C)C)cc2CC1C (stereo not drawn) 1.12 µM [inhibitor, full curve, poor fit]
CCN(Cc1ccccc1)Cc1c(O)ccc2oc(C)c(C(=O)Nc3ccccc3C)c12 3.98 µM [inhibitor, partial curve, poor fit]
CCOc1ccccc1NC(=O)CN1C(=O)COc2ccc(S(=O)(=O)N3CCCCCC3)cc21 0.708 µM [inhibitor, full curve, poor fit]
COc1ccccc1NC(=O)Cn1c(=O)n(Cc2ccco2)c(=O)c2oc3ccccc3c21 0.794 µM [inhibitor, full curve, poor fit]
CCc1ccc(NC(=O)c2cc3c(=O)n(Cc4cccs4)ccc3nc2C)cc1 0.794 µM [inhibitor, full curve, poor fit]
COc1ccc(CNC(=O)CSCc2ccc(C)cc2)c(OC)c1 25.1 µM [inhibitor, partial curve, poor fit]
CCc1ccc(NC(=O)CSc2cn(CC(=O)N3CCOCC3)c3ccccc23)cc1 0.794 µM [inhibitor, partial curve, poor fit]
COc1ccc(N2CCN(C(CNC(=O)c3cccc(OC)c3)c3cccnc3)CC2)cc1 (stereo not drawn) 7.08 µM [inhibitor, partial curve, poor fit]
COc1ccc(CNC(=O)C2CCN(c3nc4ccccc4[nH]3)CC2)c(OC)c1 3.98 µM [inhibitor, full curve, poor fit]
CC1CCCN(C(=O)Cn2c(=O)oc3cc(S(=O)(=O)N4CCCCC4)ccc32)C1 (stereo not drawn) 3.55 µM [inhibitor, partial curve, poor fit]
O=C(NCCCN1CCN(c2ccccc2F)CC1)c1ccc2nc(N3CCCCC3)sc2c1 22.4 µM [inhibitor, partial curve, poor fit]
Cc1ccc(CNC(=O)Cn2cccc2C(=O)c2ccccc2C)cc1 11.2 µM [inhibitor, full curve, poor fit]
COc1ccc(-n2nc3c(N4CCCC(C(=O)NCCc5ccccc5C)C4)nnc(C)c3c2C)cc1 (stereo not drawn) 1 µM [inhibitor, full curve, poor fit]
COCCn1c(C)cc(O)c(C(c2ccc(F)cc2)N2CCC(C)CC2)c1=O (stereo not drawn) 4.47 µM [inhibitor, full curve, poor fit]
Clc1cccc(-n2cc(-c3ccccc3)c3c(NC4CCCC4)ncnc32)c1 3.16 µM [inhibitor, full curve, poor fit]
COCCNC(=O)c1[nH]c2cc(C)ccc2c1Sc1ccc(Cl)cc1 1.26 µM [inhibitor, full curve, poor fit]
COc1ccc(N2CCN(C(=O)CSCc3ccc(C)cc3)CC2)cc1 0.251 µM [inhibitor, full curve, poor fit]
Cc1cc(C)cc(NC(=O)CSc2nc3c(c(=O)[nH]2)CN(Cc2ccc(F)cc2)CC3)c1 1 µM [inhibitor, full curve, poor fit]
COc1cc(NC(=O)CN2CCN(c3ccc(F)cc3)CC2)cc(OC)c1 0.126 µM [inhibitor, full curve, poor fit]
Cc1cc(OC(C)C(=O)Nc2cccc(-c3nc4ccccc4o3)c2)cc(C)c1Cl (stereo not drawn) 0.631 µM [inhibitor, full curve, poor fit]
Cc1oc(-c2ccc(C(=O)NCc3cccc(F)c3)cc2)nc1COc1ccccc1 1.12 µM [inhibitor, full curve, poor fit]
COc1ccc(NC(=O)CCc2c(C)nn(-c3ccc(N4CCCCC4)nn3)c2C)cc1Cl 0.141 µM [inhibitor, full curve, poor fit]
COc1ccc(Cl)cc1S(=O)(=O)NCc1ccc2c(c1)CCN2C(=O)c1cccc(C)c1 4.47 µM [inhibitor, partial curve, poor fit]
CCCCCn1c(CCNC(=O)c2cccc(C)c2)nc2ccccc21 14.1 µM [inhibitor, partial curve, poor fit]
Cc1ccc(CNS(=O)(=O)c2cc3c(cc2Cl)NC(=O)CO3)o1 44.7 µM [inhibitor, partial curve, poor fit]
Cc1ccc(C)c(NC(=O)CSc2nc3nccnc3c(=O)n2CCc2c[nH]c3ccccc23)c1 7.08 µM [inhibitor, partial curve, poor fit]
COCCCNC(=O)c1c(NC(=O)Cc2coc3cc(C)ccc23)sc2c1CCCC2 3.55 µM [inhibitor, full curve, poor fit]
Cc1ccc(-n2ncc3c(=O)n(Cc4cccc(Cl)c4)cnc32)cc1C 44.7 µM [inhibitor, partial curve, poor fit]
Cc1cccc(NC(=O)Cn2nnc(-c3nc(-c4ccncc4)no3)c2N)c1 0.891 µM [inhibitor, full curve, poor fit]
CCN(CC)CCCNc1oc(/C=C/c2ccc(OC)c(OC)c2)nc1C#N 39.8 µM [inhibitor, partial curve, poor fit]
Cc1ccc(NC(=O)C(=O)NCC(c2cccnc2)N2CCN(Cc3ccccc3)CC2)cc1C (stereo not drawn) 7.08 µM [inhibitor, partial curve, poor fit]
Cc1ccc(-c2nn3c(-c4ccccc4C)nnc3c3ccccc23)cc1 39.8 µM [inhibitor, single point]
CCOC(=O)c1ccc(NC(=O)Cn2nc3c4ccccc4n(Cc4cccc(F)c4)cc-3c2=O)cc1 0.126 µM [inhibitor, full curve, poor fit]
Cc1ccc(N2CCN(C(=O)c3nn(C)c4c3CS(=O)(=O)c3ccccc3-4)CC2)c(C)c1 7.08 µM [inhibitor, partial curve, poor fit]
Cc1ccc(Cn2c(=O)n(Cc3ccccc3)c(=O)c3oc4ccccc4c32)cc1 1.26 µM [inhibitor, full curve, poor fit]
CC(=O)c1ccc(N2CCN(S(=O)(=O)c3cc4[nH]c(=O)c(=O)[nH]c4cc3C)CC2)cc1 1.78 µM [inhibitor, full curve, poor fit]
CC(C)CCn1c(=O)c2cccnc2n(CC(=O)Nc2ccccc2)c1=O 8.91 µM [inhibitor, partial curve, poor fit]
COc1ccc2c(c1)c1c(c(=O)n(-c3ccc(C)cc3)c(=O)n1CC(=O)c1ccc(Cl)cc1)n2C 39.8 µM [inhibitor, partial curve, poor fit]
COc1ccc2c(CNCCc3ccccc3C)c(C(=O)O)n(Cc3ccccc3C)c2c1 3.98 µM [inhibitor, full curve, poor fit]
CN(C(=O)CSc1nnc(-c2ccc([N+](=O)[O-])cc2)o1)C1CCCCC1 4.47 µM [inhibitor, full curve, poor fit]
COc1ccccc1NC(=O)N1CCN(c2nnc(C)c3c(C)n(-c4ccc(Cl)cc4)nc23)CC1 0.199 µM [inhibitor, full curve, poor fit]

Pulled by structure from the entries so far:
Potency, inconclusive:
CC(C)CCn1c(=O)c2cccnc2n(CC(=O)Nc2ccccc2)c1=O 8.91 µM [inhibitor, partial curve, poor fit]
CCN(CC)CCCNc1oc(/C=C/c2ccc(OC)c(OC)c2)nc1C#N 39.8 µM [inhibitor, partial curve, poor fit]
O=C(Nc1ccccc1)c1ccc2c(O)c(S(=O)(=O)c3ccc(Cl)cc3)c(=O)[nH]c2c1 28.2 µM [inhibitor, partial curve, poor fit]
O=C(NCCCN1CCN(c2ccccc2F)CC1)c1ccc2nc(N3CCCCC3)sc2c1 22.4 µM [inhibitor, partial curve, poor fit]
